From the supplement of paper PMC10849652
Some of the results follow.

By UniProt entry, the sequences of proteins in these tests, tags left out. Where a name states a change or a piece, a line headed by the entry shows the natural chain unless it says otherwise.
UniProt P98170, whole entry, looked up: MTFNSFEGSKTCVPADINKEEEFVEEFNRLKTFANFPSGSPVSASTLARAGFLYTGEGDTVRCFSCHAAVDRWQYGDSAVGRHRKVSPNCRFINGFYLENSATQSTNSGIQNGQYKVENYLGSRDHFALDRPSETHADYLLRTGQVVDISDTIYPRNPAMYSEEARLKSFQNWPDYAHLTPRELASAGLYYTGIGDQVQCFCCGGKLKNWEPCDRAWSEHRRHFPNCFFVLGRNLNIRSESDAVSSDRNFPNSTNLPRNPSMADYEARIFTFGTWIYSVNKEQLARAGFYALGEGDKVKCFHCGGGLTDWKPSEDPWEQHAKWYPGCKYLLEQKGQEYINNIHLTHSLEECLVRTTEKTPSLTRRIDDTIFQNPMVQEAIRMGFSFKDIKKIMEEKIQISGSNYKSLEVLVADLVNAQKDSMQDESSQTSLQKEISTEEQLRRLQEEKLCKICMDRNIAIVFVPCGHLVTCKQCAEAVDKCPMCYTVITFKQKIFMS
UniProt Q9H977: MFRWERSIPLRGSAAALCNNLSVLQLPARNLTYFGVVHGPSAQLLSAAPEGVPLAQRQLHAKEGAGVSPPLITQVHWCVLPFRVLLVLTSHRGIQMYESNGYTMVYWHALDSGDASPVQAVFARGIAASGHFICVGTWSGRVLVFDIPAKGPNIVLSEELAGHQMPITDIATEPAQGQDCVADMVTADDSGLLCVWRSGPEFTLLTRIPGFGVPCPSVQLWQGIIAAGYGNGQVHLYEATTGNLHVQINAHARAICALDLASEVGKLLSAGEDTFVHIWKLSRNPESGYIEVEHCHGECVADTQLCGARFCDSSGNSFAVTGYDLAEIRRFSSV
UniProt Q9H967: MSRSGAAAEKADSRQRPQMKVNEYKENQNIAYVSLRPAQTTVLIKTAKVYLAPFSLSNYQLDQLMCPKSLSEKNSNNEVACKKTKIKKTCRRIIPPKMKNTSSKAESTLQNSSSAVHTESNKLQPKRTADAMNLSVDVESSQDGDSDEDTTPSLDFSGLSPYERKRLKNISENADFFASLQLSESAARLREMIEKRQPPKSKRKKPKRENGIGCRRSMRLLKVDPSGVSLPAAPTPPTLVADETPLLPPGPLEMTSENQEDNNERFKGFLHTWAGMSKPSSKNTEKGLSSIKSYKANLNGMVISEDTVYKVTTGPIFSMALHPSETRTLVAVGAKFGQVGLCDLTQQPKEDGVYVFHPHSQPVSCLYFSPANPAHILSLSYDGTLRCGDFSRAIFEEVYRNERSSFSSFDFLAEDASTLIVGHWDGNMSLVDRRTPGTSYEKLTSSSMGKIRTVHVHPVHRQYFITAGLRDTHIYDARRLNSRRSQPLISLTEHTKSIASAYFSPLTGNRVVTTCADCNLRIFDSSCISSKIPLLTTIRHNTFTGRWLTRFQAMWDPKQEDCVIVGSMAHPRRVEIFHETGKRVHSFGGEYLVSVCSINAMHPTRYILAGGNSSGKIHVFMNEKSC
UniProt Q9Y4P8: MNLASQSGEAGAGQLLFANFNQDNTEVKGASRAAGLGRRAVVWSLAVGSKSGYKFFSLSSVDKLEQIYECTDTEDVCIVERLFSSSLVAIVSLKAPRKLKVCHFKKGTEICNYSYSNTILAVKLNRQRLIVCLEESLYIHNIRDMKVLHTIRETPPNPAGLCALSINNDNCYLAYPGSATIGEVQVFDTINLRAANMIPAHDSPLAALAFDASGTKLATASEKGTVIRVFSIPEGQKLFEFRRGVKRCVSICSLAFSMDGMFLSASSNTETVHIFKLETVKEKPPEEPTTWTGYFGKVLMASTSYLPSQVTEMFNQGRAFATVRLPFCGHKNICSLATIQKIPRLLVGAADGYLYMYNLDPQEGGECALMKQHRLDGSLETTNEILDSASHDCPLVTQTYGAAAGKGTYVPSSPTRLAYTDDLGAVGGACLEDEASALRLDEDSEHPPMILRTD
UniProt Q15906, whole entry, looked up: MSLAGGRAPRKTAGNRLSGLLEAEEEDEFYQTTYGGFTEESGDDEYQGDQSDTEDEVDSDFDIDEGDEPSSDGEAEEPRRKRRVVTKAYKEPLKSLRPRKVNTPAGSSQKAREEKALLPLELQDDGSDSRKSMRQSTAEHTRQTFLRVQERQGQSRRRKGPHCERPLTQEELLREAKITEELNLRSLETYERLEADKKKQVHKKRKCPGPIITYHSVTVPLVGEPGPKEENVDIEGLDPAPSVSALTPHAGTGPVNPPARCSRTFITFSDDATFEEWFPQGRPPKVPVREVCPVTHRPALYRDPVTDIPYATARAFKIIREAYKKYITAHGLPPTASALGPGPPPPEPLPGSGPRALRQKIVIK
UniProt Q502W6: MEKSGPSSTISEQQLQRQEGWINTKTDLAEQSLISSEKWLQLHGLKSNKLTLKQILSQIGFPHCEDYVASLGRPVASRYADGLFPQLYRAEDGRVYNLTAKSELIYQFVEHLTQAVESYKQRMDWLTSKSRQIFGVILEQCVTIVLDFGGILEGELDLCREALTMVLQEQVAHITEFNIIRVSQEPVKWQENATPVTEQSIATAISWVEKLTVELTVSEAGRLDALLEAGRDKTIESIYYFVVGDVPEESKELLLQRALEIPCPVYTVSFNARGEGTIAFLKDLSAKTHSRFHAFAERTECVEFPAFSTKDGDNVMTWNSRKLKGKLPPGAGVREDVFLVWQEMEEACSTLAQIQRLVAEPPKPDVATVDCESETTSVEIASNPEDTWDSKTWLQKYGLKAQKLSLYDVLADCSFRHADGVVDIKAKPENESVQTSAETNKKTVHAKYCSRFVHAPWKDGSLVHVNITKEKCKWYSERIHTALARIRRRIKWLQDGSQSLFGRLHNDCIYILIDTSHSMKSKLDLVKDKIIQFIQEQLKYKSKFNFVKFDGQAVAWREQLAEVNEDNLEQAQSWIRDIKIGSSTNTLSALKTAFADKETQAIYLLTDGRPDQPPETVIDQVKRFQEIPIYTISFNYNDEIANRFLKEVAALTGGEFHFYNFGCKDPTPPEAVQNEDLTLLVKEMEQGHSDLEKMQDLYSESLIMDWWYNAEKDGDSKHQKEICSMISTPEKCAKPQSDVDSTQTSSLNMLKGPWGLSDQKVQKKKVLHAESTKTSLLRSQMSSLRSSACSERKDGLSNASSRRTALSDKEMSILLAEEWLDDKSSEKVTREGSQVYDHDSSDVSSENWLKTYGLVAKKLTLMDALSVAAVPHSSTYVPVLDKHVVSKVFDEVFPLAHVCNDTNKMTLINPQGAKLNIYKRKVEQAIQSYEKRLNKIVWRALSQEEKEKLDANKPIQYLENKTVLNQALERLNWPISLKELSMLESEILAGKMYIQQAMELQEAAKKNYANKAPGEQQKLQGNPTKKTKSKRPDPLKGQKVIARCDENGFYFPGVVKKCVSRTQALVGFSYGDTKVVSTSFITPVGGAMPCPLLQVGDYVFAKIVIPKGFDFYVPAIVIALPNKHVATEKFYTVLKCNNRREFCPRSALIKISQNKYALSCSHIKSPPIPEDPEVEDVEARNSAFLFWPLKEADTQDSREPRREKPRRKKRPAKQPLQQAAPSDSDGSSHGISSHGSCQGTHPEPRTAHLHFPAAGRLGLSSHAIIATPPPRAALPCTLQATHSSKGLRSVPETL
UniProt Q8TAF3: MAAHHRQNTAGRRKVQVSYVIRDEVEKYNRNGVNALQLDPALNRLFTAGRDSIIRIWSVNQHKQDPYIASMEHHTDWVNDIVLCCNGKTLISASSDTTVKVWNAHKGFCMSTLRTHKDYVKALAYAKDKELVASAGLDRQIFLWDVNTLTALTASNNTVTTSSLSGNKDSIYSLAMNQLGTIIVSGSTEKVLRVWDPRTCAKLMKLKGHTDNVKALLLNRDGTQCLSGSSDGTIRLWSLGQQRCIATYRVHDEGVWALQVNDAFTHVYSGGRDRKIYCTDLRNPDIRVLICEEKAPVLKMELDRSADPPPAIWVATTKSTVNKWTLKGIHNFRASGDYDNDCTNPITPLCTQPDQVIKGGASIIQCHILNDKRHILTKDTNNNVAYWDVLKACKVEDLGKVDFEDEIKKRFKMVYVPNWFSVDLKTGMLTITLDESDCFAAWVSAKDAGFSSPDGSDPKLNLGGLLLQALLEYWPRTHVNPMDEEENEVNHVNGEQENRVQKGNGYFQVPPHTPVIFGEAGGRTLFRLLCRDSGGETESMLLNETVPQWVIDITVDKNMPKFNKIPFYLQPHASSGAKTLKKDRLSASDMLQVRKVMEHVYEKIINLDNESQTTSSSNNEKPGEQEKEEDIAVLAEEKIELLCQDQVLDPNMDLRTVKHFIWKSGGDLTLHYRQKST
UniProt Q8NI36: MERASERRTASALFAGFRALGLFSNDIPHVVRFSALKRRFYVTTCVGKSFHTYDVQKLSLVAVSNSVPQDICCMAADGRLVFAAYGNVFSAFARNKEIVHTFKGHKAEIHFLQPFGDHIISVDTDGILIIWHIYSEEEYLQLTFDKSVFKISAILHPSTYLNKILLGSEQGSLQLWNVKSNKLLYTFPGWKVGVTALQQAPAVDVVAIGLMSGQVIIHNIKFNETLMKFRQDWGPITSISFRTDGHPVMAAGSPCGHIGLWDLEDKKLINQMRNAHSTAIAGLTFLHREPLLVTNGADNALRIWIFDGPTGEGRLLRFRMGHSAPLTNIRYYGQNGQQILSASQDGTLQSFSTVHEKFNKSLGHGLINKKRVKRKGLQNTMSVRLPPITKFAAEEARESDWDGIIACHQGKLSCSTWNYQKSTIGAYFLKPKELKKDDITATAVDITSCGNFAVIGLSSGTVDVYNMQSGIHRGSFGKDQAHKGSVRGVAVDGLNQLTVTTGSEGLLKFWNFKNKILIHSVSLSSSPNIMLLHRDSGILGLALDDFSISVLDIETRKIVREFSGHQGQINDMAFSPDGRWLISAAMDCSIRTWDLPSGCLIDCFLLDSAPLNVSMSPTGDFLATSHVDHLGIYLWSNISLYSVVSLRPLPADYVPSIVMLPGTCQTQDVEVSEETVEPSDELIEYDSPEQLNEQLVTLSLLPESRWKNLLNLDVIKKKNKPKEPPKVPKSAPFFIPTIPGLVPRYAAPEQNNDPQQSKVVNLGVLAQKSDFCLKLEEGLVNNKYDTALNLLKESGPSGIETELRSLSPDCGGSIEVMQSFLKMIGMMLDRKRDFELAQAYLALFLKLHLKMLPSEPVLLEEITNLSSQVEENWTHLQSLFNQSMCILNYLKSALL
UniProt Q15007: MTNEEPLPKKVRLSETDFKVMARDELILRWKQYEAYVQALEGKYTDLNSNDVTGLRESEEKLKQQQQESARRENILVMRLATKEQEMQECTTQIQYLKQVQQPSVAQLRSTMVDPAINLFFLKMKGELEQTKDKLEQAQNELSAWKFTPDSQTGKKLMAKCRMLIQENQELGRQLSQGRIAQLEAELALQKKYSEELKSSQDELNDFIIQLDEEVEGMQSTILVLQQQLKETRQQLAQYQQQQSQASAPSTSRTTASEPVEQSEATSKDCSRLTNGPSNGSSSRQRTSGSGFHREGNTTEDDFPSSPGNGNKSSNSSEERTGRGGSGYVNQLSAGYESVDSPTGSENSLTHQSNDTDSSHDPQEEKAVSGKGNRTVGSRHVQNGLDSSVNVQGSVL
UniProt Q5T750: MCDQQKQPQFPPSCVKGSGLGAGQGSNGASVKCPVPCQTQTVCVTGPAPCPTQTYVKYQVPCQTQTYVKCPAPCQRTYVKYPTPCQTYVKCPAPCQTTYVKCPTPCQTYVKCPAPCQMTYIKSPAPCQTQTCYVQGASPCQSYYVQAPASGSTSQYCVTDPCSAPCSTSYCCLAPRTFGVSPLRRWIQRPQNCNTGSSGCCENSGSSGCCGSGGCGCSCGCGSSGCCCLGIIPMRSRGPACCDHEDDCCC
UniProt Q96AJ9: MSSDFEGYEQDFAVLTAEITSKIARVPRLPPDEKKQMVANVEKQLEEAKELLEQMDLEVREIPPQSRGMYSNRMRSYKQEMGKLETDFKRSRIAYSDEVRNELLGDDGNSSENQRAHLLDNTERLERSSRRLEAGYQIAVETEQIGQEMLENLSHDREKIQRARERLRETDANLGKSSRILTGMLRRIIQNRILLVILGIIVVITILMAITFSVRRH
UniProt Q5MNZ9: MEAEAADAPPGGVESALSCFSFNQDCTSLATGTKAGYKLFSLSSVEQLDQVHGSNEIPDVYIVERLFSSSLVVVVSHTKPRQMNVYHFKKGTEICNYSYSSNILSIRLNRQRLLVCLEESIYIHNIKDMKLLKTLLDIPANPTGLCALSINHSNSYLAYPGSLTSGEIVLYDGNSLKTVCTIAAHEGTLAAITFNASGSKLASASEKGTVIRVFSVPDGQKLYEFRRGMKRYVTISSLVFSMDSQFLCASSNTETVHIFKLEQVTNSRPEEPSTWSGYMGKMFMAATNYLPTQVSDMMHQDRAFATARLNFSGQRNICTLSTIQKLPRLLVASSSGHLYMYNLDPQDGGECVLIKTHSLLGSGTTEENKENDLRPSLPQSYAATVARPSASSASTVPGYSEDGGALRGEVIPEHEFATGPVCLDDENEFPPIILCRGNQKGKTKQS

Tests used:
Assay in all cases: log2 fold change, soluble protein after heating vs DMSO (PISA); higher = thermal stabilisation; K562 lysate, 10 uM; active = over 0.2 and 3.5 SD of the protein, either way, in both replicates (recomputed)
[1] = compound: CC1=C2C(=CC=C1)N=C(N(C2=O)C3=CC=CC=C3C)CN4C=NC5=C(N=CN=C54)N
Outline: (§1)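 Log-two fold change in thermal stability relative to solvent controls is reported from duplicates. For each sample, crude K562 extract from dounce-homogenised pellets in PBS pH 7.4 with 1 mM MgCl2, at 1 mg/mL protein, was treated with 10 μM compound for 30 min. Aliquots heated for 3 min across 48°C-58°C were pooled, brought to 0.5% NP-40 at 4°C and cleared at 21,000xg for 90 min. The supernatant was quantified by TMTpro 16plex LC-MS/MS with channel sums equalised.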

[2] = compound: Cc1sc2c(c1C)C(c1ccc(Cl)cc1)=N[C@@H](CC(=O)OC(C)(C)C)c1nnc(C)n1-2
Outline: as §1

[3] = compound: C1=CC=C(C=C1)[C@H](COC2=CC3=C(C=C2)NC(=O)N3)NC(=O)C4=CC=CN(C4=O)CC5=CC(=C(C=C5)F)F
Outline: as §1

[4] = compound: CC1=C(SC2=C1C(=N[C@H](C3=NN=C(N32)C)CC(=O)N)C4=CC=C(C=C4)Cl)C
Outline: as §1

[5] = compound: c1ccc([C@@H]2C[C@H]2NC2CCNCC2)cc1
Outline: as §1

Measured: log2 fold change

WDYHV1 (UniProt Q96HA8)
inactive: [1] 0.159 | [2] 0.036

WDR53 (UniProt Q7Z5U6)
inactive: [3] 0.037 | [4] -0.032 | [1] -0.31 | [2] -0.077 | [5] -0.001

VPS52 (UniProt Q8N1B4)
inactive: [3] -0.011 | [4] -0.003 | [1] 0.051 | [2] -0.005 | [5] 0.01

WAC isoform 5 (UniProt Q9BTA9)
inactive: [2] -0.232

WDR66 (UniProt Q8TBY9)
inactive: [1] -0.109

XIAP (UniProt P98170)
inactive: [3] 0.008 | [4] 0.029 | [1] 0.07 | [2] -0.001 | [5] 0

WDR34 (UniProt Q96EX3)
inactive: [3] -0.044 | [4] 0.031 | [1] -0.007 | [2] -0.023 | [5] 0.029

VSIR (UniProt Q9H7M9)
inactive: [3] 0.003 | [4] -0.001 | [1] 0.03 | [2] -0.067 | [5] -0.018

WDR54 isoform 4 (UniProt Q9H977)
inactive: [3] 0.023 | [4] 0.205 | [1] 0.083 | [2] 0.069 | [5] 0.062

WDR76 (UniProt Q9H967)
inactive: [2] -0.167

WDFY2 (UniProt Q96P53)
inactive: [2] 0.055

VTI1B (UniProt Q9UEU0)
inactive: [3] 0.022 | [4] 0.089 | [2] -0.118 | [5] -0.035

WDR82 (UniProt Q6UXN9)
inactive: [3] 0.004 | [4] 0.003 | [1] 0.01 | [2] 0.027 | [5] -0.02

VPS35, A0A1W2PP10
inactive: [3] 0.347 | [4] -0.17 | [5] -0.243

WIPI2 isoform 6 (UniProt Q9Y4P8)
inactive: [3] 0.092 | [4] 0.088 | [5] -0.073

VPS36 (UniProt Q86VN1)
inactive: [3] 0.018 | [4] 0.024 | [1] 0.003 | [2] -0.012 | [5] -0.006

XK (UniProt P51811)
inactive: [3] 0.041 | [4] -0.041 | [2] -0.083 | [5] -0.023

VPS72 (UniProt Q15906)
inactive: [1] 0.027 | [2] -0.015 | [5] -0.035

VWA3B isoform 6 (UniProt Q502W6)
inactive: [3] -0.081 | [4] -0.109 | [2] -0.151 | [5] -0.109

WWOX (UniProt Q9NZC7)
inactive: [1] -0.056 | [2] 0.274 | [5] 0.119

VPS29 (UniProt Q9UBQ0)
inactive: [1] -0.01 | [2] -0.118

WSB1 (UniProt Q9Y6I7)
inactive: [2] 0.036 | [5] -0.036

WDR48 (UniProt Q8TAF3)
inactive: [3] 0.023 | [4] -0.002 | [1] 0.018 | [2] -0.029 | [5] -0.04

WDR73 (UniProt Q6P4I2)
inactive: [3] 0.017 | [4] 0.056 | [1] -0.011 | [2] -0.034 | [5] 0.05

VPS13C (UniProt Q709C8)
inactive: [3] -0.111 | [4] -0.002 | [1] 0.061 | [2] 0.018 | [5] 0.008

WDR36 (UniProt Q8NI36)
inactive: [3] 0.006 | [4] 0.001 | [1] 0.06 | [2] 0.025 | [5] 0.035

WTAP (UniProt Q15007)
inactive: [3] 0.001 | [4] 0.036 | [1] 0.005 | [2] -0.047 | [5] 0.021

WDR19 (UniProt Q8NEZ3)
inactive: [3] -0.023 | [4] -0.03 | [5] -0.467

Looked up one by one from the entries so far (3):
WDR48 (UniProt Q8TAF3)
inactive: [3] 0.023 | [4] -0.002 | [1] 0.018 | [2] -0.029 | [5] -0.04

WTAP (UniProt Q15007)
inactive: [3] 0.001 | [4] 0.036 | [1] 0.005 | [2] -0.047 | [5] 0.021

WDR36 (UniProt Q8NI36)
inactive: [3] 0.006 | [4] 0.001 | [1] 0.06 | [2] 0.025 | [5] 0.035

(listing goes on)

XP32 (UniProt Q5T750)
inactive: [5] 0.304

VTI1A (UniProt Q96AJ9)
inactive: [3] -0.001 | [4] -0.04 | [1] 0.186 | [2] 0.032 | [5] 0.023

VPS53 isoform 4 (UniProt Q5VIR6)
inactive: [3] -0.016 | [4] 0.005 | [1] 0.011 | [2] 0.008 | [5] 0.019

VPS33B (UniProt Q9H267)
inactive: [3] 0.013 | [4] -0.01 | [1] 0.04 | [2] -0.006 | [5] 0.014

WDR13, A0A087X091
inactive: [1] -0.055 | [5] 0.02

WDR44 (UniProt Q5JSH3)
inactive: [3] 0.007 | [4] 0.011 | [1] -0.004 | [2] -0.019 | [5] -0.025

WIPI1 (UniProt Q5MNZ9)
inactive: [3] 0.094 | [4] 0.023 | [2] 0.035 | [5] -0.031

WDR61 (UniProt Q9GZS3)
inactive: [3] 0.025 | [4] -0.043 | [1] 0.022 | [2] -0.035 | [5] -0.001
